Measurements from PubChem BioAssay AID504444 (National Center for Advancing Translational Sciences (NCATS), 2011).
Screen size: about 360,000 compounds; about 7,500 (2.1%) were called active. Inconclusive results, whose numbers are uncertain, are shown with a selection of clear calls. The call rests on the fitted dose curve; in most records, active means well fitted inhibition curve with a large enough effect; inconclusive means small, poorly fitted or top-dose-only effect, or effect the other way; inactive means flat fitted curve, though single readings scatter. A potency beside an inconclusive call is a rough fit, not a confirmed value.

Test: Nrf2 qHTS screen for inhibitors; further: nearly all actives have a fitted effect of over 60% in size
Conditions: A549 ARE-Fluc reporter, luciferase luminescence, 18-24 h; series mostly up to 46 µM
Procedure, shortened: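 Nrf2 function is reported as luminescence of an ARE-controlled luciferase in A549 cells. Compounds were tested at several concentrations, and a CellTiter-Fluor read on the same wells flagged cytotoxicity.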
Potency means the concentration at half of the fitted maximal effect.

Structure (SMILES) | Potency
COc1ccc(OC)c(C2CC(=O)N3CN(c4ccccc4F)CSC3=C2C#N)c1 (stereo not given) | inactive
Cc1ccc(C(=O)CCc2ccc(N)cc2)cc1 | inconclusive: 18.4 µM [activator, partial curve, poor fit]
COc1cc2cc(CCCOC(=O)CCCC(=O)O)oc(=O)c2cc1OC | inconclusive: 18.4 µM [falling, partial curve, poor fit]
O=C1CCc2cc(S(=O)(=O)Nc3ccccc3F)cc3c2N1CCC3 | inconclusive: 18.4 µM [falling, partial curve]
O=Cc1ccc(OCCN2CCCC2=O)cc1 | inconclusive: 29.1 µM [activator, single point]
O=C(Cn1cc(C(F)(F)F)ccc1=O)N/N=C/c1ccccc1O | inactive
CCCc1cc(-c2ccc3c(c2)COc2c4ccccc4nn2-3)on1 | inconclusive: 1.64 µM [activator, partial curve]
COc1ccc(Cl)cc1NC(=O)Cn1c2ncccc2c(=O)n1-c1ccc(C)c(C)c1 | inactive
Cc1nc([N+](=O)[O-])c(N2CCN(Cc3ccccc3)CC2)n1Cc1ccccc1 | inactive
Cc1ccc(N(Cc2ccc(C(=O)NCCSc3ccccn3)cc2)S(C)(=O)=O)cc1C | inactive
Cc1cccc(CCNC(=O)c2cc3ccccn3n2)c1 | inconclusive: 8.2 µM [activator, partial curve]
COc1ccc(C2C=C(c3ccccc3)Nc3nc(NC(=O)c4ccc(C)cc4)nn32)cc1 (stereo not given) | inactive
O=C(Cn1c(=O)[nH]c2ccccc2c1=O)N1CCN(Cc2ccc3c(c2)OCO3)CC1 | inconclusive: 20.6 µM [falling, partial curve, poor fit]
O=[N+]([O-])c1cc([N+](=O)[O-])c(Oc2cc(Cl)ccc2Cl)cc1NC1CCCCCCC1 | inconclusive: 29.1 µM [activator, single point]
CC(C)(C)c1ccc(-c2n[nH]c(=S)n2Cc2ccccc2)cc1 | inconclusive: 20.6 µM [falling, single point]
CC(=O)Nc1ccc(C(=O)CSc2nc3ccc(C)cc3[nH]2)cc1 | inactive
O=C(Nc1cccc(F)c1)C1CCCN(C(=O)c2ccc(Cl)cc2)C1 (stereo not given) | active: 7.31 µM
COC(=O)Cc1ccc(N(Cc2ccccc2F)S(=O)(=O)c2ccc(Br)cc2)cc1 | inconclusive: 29.1 µM [falling, single point]
Cc1sc2nc(SCC(=O)N(C)c3ccccc3)n(C)c(=O)c2c1C | inconclusive: 29.1 µM [falling, single point]
COCCCNc1nc2ccccc2nc1NS(=O)(=O)c1cccc(Cl)c1 | inconclusive: 18.4 µM [falling, single point]

Part of the list above in order of heavy-atom count, falling.
Structure (SMILES) | Potency
COC(=O)Cc1ccc(N(Cc2ccccc2F)S(=O)(=O)c2ccc(Br)cc2)cc1 | inconclusive: 29.1 µM [falling, single point]
COc1cc2cc(CCCOC(=O)CCCC(=O)O)oc(=O)c2cc1OC | inconclusive: 18.4 µM [falling, partial curve, poor fit]
O=C1CCc2cc(S(=O)(=O)Nc3ccccc3F)cc3c2N1CCC3 | inconclusive: 18.4 µM [falling, partial curve]
